Data as given in the supplement of paper PMC11732987, “Enantioselective OTUD7B fragment discovery through chemoproteomics screening and high-throughput optimisation” (Communications Chemistry, 2025).
The list shows a part of the results. The data scatter; read single values as rough.

Protein sequences, listed by entry. Tags and fused reporters are not part of them. Lines headed by an entry give the natural chain unless they say otherwise; changes in a name come on top. Residues count along the entry.
UniProt Q92576, 328-355: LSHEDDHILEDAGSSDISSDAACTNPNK
UniProt O95602, whole entry, looked up: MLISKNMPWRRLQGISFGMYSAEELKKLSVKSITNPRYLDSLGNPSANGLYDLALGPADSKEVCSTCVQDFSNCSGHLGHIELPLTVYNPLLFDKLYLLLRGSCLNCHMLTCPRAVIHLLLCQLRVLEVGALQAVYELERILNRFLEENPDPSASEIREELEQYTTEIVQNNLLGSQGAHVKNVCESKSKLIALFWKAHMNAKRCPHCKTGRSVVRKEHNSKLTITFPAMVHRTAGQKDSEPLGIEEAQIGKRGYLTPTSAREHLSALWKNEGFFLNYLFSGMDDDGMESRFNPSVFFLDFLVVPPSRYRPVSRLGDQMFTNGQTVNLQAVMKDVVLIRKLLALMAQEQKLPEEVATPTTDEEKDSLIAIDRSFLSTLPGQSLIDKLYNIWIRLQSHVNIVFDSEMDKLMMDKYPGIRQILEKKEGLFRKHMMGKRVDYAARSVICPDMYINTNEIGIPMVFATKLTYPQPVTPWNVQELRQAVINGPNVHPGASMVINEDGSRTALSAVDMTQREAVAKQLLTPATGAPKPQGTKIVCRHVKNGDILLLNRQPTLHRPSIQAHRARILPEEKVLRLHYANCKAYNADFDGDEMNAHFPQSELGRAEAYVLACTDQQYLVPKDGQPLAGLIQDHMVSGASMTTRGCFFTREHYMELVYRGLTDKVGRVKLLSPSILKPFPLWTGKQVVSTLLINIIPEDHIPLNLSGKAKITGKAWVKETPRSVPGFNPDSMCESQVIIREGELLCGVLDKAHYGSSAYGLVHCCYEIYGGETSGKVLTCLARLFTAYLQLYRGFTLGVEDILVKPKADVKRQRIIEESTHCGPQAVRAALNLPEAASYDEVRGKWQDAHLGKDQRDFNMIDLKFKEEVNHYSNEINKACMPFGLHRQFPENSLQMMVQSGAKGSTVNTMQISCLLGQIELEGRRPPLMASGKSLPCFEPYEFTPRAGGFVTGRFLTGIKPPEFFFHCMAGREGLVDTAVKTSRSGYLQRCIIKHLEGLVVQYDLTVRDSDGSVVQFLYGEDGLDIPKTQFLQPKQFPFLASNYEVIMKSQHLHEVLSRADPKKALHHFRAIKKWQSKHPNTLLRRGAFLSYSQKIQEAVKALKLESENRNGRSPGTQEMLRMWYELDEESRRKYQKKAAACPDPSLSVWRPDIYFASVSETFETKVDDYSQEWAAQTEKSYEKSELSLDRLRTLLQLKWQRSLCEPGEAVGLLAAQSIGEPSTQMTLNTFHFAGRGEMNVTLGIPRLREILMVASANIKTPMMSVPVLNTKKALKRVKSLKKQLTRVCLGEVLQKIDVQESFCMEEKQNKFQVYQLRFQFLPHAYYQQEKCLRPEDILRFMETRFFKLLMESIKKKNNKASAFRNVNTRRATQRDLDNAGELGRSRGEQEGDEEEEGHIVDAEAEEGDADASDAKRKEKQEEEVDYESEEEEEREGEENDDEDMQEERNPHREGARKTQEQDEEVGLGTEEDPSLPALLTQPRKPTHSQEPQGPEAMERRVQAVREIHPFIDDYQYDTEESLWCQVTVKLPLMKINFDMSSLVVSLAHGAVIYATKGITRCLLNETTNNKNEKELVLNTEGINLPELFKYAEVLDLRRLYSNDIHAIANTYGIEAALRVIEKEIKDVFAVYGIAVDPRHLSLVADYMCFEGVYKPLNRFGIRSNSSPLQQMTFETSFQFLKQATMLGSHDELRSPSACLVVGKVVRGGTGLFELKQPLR
UniProt O94903: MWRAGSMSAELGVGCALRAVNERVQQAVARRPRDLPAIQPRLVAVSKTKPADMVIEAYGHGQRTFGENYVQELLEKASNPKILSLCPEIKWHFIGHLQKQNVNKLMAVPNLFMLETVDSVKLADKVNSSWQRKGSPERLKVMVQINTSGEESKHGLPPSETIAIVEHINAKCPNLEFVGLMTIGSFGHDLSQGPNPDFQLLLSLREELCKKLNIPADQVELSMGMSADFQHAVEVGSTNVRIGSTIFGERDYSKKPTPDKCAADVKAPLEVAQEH
UniProt Q8IWS0: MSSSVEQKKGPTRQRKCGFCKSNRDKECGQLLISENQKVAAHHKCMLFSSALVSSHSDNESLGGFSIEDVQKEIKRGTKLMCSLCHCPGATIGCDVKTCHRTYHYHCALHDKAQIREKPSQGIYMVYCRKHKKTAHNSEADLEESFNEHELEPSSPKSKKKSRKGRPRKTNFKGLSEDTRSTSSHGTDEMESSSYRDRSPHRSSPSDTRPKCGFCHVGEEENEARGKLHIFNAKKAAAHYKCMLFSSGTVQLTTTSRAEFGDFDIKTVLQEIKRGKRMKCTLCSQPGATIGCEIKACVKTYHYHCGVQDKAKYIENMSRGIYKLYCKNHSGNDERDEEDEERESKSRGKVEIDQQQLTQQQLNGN
UniProt Q9Y263: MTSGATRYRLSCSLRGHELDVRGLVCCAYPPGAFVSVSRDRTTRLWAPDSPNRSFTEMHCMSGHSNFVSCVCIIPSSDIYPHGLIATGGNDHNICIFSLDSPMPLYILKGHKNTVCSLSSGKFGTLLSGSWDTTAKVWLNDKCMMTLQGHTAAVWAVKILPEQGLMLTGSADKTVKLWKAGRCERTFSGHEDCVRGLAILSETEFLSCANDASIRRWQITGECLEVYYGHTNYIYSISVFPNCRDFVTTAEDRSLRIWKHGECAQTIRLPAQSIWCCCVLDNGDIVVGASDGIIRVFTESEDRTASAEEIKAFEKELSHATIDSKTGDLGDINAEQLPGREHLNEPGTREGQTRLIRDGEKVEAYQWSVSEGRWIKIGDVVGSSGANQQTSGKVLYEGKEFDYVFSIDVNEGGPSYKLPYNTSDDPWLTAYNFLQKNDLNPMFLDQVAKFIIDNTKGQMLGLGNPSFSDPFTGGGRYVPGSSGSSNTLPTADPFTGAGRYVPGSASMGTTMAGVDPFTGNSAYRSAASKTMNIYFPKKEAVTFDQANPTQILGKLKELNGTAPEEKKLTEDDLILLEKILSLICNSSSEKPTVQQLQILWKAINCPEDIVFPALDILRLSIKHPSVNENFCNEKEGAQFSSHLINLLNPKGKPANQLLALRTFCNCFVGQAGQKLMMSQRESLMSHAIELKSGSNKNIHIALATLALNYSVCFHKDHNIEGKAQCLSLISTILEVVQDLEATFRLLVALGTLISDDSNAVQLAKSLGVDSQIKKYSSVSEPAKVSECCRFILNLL
UniProt Q14442: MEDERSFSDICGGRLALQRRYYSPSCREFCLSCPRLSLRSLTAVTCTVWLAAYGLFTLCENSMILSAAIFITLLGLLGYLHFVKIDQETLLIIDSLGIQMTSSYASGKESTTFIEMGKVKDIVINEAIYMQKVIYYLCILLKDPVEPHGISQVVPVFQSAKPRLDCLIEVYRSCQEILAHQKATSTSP
UniProt Q14651: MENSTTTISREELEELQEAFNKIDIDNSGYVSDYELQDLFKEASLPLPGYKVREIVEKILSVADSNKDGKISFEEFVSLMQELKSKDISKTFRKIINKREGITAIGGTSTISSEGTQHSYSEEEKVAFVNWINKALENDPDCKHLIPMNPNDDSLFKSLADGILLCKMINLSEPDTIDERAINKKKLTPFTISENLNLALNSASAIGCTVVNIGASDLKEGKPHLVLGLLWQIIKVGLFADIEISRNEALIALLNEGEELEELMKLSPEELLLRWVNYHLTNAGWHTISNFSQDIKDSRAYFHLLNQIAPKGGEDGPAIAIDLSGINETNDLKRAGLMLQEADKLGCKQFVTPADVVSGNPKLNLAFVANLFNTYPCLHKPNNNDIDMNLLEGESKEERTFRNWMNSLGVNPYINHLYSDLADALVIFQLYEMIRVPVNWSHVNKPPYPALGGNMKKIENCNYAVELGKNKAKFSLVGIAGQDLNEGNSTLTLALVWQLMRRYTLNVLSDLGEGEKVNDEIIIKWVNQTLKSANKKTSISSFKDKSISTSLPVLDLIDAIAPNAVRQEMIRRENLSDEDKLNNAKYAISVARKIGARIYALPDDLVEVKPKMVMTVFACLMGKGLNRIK
UniProt O75925: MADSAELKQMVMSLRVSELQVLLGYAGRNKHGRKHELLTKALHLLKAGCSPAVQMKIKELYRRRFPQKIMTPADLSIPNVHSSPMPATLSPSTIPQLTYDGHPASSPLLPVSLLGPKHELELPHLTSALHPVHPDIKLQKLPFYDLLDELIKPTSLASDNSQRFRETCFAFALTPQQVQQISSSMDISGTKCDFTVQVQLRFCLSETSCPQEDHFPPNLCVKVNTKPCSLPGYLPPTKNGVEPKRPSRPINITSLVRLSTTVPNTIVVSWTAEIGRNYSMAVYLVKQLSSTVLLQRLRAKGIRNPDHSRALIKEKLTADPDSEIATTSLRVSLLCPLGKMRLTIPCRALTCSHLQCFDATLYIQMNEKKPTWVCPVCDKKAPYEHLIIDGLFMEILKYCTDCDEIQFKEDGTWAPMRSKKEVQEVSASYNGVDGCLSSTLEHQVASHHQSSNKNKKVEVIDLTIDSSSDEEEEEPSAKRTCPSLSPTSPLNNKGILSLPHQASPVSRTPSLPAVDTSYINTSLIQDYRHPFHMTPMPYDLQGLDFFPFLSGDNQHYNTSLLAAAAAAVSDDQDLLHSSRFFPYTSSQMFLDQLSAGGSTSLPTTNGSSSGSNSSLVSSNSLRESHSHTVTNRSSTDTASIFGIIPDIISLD
UniProt P28340: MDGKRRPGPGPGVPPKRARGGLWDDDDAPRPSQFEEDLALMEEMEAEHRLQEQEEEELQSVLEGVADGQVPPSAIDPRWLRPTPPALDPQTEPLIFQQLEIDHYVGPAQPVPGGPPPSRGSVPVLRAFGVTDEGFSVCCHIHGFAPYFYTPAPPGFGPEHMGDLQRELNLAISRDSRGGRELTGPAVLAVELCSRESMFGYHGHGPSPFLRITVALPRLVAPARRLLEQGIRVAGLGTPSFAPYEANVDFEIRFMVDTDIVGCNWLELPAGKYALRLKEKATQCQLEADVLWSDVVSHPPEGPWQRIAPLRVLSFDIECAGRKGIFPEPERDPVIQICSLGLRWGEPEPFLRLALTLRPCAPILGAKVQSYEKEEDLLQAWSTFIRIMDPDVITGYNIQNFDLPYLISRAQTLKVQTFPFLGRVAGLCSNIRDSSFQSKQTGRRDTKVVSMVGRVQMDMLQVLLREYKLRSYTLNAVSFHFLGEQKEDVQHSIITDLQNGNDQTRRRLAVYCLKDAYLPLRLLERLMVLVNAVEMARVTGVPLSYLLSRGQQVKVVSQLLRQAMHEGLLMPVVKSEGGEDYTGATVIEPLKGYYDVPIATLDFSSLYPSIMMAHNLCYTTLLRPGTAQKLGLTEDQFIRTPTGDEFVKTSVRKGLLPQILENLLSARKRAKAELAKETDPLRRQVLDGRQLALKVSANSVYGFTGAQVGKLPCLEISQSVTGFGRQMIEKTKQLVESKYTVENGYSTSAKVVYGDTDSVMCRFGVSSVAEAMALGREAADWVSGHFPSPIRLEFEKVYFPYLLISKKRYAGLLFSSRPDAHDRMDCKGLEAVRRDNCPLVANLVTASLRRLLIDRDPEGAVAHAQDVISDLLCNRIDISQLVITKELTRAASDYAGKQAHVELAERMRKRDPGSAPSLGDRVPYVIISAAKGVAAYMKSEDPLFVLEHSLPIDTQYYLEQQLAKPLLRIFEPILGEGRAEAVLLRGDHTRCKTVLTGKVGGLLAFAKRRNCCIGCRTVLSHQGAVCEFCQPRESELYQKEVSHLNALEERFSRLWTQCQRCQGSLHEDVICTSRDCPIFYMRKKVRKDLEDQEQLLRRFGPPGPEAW
UniProt P37287, 333-353: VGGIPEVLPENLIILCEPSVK
UniProt Q16512, 569-606: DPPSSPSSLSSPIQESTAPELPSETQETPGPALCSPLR
UniProt O00459: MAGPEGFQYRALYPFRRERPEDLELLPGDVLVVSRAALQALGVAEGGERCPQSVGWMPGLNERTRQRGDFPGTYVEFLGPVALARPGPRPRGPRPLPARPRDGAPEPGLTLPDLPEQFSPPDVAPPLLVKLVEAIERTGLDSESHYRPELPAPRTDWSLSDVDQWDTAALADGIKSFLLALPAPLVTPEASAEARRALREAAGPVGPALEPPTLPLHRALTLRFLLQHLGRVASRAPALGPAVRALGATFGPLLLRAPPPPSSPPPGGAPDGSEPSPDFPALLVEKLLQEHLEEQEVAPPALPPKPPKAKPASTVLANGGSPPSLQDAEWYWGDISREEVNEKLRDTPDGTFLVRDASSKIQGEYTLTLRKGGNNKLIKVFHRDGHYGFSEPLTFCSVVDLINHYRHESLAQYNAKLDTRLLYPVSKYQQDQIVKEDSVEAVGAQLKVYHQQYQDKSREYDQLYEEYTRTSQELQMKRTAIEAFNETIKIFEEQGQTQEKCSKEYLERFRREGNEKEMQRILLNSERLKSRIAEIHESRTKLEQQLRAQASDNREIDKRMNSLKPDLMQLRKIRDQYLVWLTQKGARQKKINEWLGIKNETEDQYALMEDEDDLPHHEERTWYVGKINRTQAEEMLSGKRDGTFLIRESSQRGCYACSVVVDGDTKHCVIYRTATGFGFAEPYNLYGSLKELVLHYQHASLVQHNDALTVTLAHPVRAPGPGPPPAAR
UniProt P78337, 66-86: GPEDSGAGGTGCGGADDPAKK

The targets below were run with ClCC(=O)N[C@H]1CCCc2ccccc12 (assay: log2 mean competition ratio of IA-DTB cysteine labelling (DMSO/compound) (log2 ratio); higher = stronger cysteine engagement by compound). Settings: 50 µM; treatment time: 4 h; cell line lysate: HEK293T.
Protocol: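 IA-DTB competitive cysteine chemoproteomics in HEK293T RIPA lysate. Lysates were treated with compound 29 or 30 at 50 or 200 µM for 4 h, then IA-DTB (500 µM, 1 h), trypsin-digested, NeutrAvidin-enriched and analysed by diaPASEF. Competition ratio = intensity DMSO / intensity compound (n=4 treated, n=64 DMSO); binding: mean log2 CR ≥ 1 and p ≤ 0.05 plus QC filters. Target is the cysteine site.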

| Target | log2 mean competition ratio |
| --- | --- |
| PHF3 C350 (UniProt Q92576) | 0.0221 |
| POLR1A C746 (UniProt O95602) | -0.498 |
| POLR1F C47 | -0.0319 |
| PLPBP C86 (UniProt O94903) | -0.103 |
| POLE C2158 (UniProt Q07864) | 0.139 |
| PIK3C2A C13 (UniProt O00443) | 0.108 |
| PLCG1 C881 (UniProt P19174) | -0.615 |
| PHGDH C295 | -0.118 |
| POLR1B C847 (UniProt Q9H9Y6) | -0.641 |
| PKN2 C704 (UniProt Q16513) | -0.0375 |
| PHF6 C28 (UniProt Q8IWS0) | 0.0534 |
| PNPLA6 C418 (UniProt Q8IY17) | 0.564 |
| PLAA C605 (UniProt Q9Y263) | 0.281 |
| PI4KA C95 (UniProt P42356) | 0.567 |
| PHKA1 C551 (UniProt P46020) | 0.0482 |
| PIGH C174 (UniProt Q14442) | -0.262 |
| POGLUT3 C156 (UniProt Q7Z4H8) | 0.0756 |
| PNMA3 C130 | -0.777 |
| PLS1 C166 (UniProt Q14651) | -0.0417 |

| Target | log2 mean competition ratio |
| --- | --- |
| PLEKHO1 C269 | -0.123 |
| PIKFYVE C1663 (UniProt Q9Y2I7) | 0.0977 |
| PIAS1 C228 (UniProt O75925) | -0.31 |
| PLOD1 C369 (UniProt Q02809) | 0.228 |
| PMVK C92 (UniProt Q15126) | 0.152 |
| PLCE1 C375 | -0.416 |
| POLQ C2295 (UniProt O75417) | 0.281 |
| PM20D2 C30 (UniProt Q8IYS1) | -0.058 |
| POLR1A C1304 (UniProt O95602) | -0.0766 |
| PKM C358 | -0.214 |
| POLR1A C733 (UniProt O95602) | 0.156 |
| POLD1 C428 (UniProt P28340) | 0.419 |
| PHKB C76 (UniProt Q93100) | 0.455 |
| POLR1A C937 (UniProt O95602) | 0.201 |
| PIGA C348 (UniProt P37287) | -0.0237 |
| PKN1 C602 (UniProt Q16512) | -0.0586 |
| PIK3R2 C50 (UniProt O00459) | 0.681 |
| PITX1 C77 (UniProt P78337) | -0.0708 |

Same assay, conditions: 200 µM; treatment time: 4 h; cell line lysate: HEK293T

| Target | log2 mean competition ratio |
| --- | --- |
| PHF3 C350 (UniProt Q92576) | -0.193 |
| POLR1A C746 (UniProt O95602) | -0.0249 |
| POLR1F C47 | 0.178 |
| PLPBP C86 (UniProt O94903) | -0.311 |
| POLE C2158 (UniProt Q07864) | 0.184 |
| PIK3C2A C13 (UniProt O00443) | -0.18 |
| PLCG1 C881 (UniProt P19174) | 0.00803 |
| PHGDH C295 | -0.114 |
| POLR1B C847 (UniProt Q9H9Y6) | -0.041 |
| PKN2 C704 (UniProt Q16513) | 0.126 |
| PHF6 C28 (UniProt Q8IWS0) | 0.0623 |
| PNPLA6 C418 (UniProt Q8IY17) | 0.16 |
| PLAA C605 (UniProt Q9Y263) | 0.332 |
| PI4KA C95 (UniProt P42356) | 0.096 |
| PHKA1 C551 (UniProt P46020) | -0.0933 |
| PIGH C174 (UniProt Q14442) | -0.146 |
| POGLUT3 C156 (UniProt Q7Z4H8) | -0.0477 |
| PNMA3 C130 | -0.101 |
| PLS1 C166 (UniProt Q14651) | 0.0223 |

| Target | log2 mean competition ratio |
| --- | --- |
| PLEKHO1 C269 | 0.4 |
| PIKFYVE C1663 (UniProt Q9Y2I7) | 0.112 |
| PIAS1 C228 (UniProt O75925) | -0.214 |
| PLOD1 C369 (UniProt Q02809) | 0.205 |
| PMVK C92 (UniProt Q15126) | 0.244 |
| PLCE1 C375 | -0.151 |
| POLQ C2295 (UniProt O75417) | 0.513 |
| PM20D2 C30 (UniProt Q8IYS1) | 0.269 |
| POLR1A C1304 (UniProt O95602) | -0.39 |
| PKM C358 | -0.109 |
| POLR1A C733 (UniProt O95602) | 0.143 |
| POLD1 C428 (UniProt P28340) | 0.115 |
| PHKB C76 (UniProt Q93100) | -0.312 |
| POLR1A C937 (UniProt O95602) | -0.0498 |
| PIGA C348 (UniProt P37287) | 0.276 |
| PKN1 C602 (UniProt Q16512) | -0.354 |
| PIK3R2 C50 (UniProt O00459) | 0.118 |
| PITX1 C77 (UniProt P78337) | -0.352 |
